Reference: the supplement of paper PMC10849652
The other results are listed elsewhere or left out.

Amino acid sequences for entries named in this document (tags omitted). A change or cut given only in a name is not applied to a line headed by its entry.
UniProt Q13263: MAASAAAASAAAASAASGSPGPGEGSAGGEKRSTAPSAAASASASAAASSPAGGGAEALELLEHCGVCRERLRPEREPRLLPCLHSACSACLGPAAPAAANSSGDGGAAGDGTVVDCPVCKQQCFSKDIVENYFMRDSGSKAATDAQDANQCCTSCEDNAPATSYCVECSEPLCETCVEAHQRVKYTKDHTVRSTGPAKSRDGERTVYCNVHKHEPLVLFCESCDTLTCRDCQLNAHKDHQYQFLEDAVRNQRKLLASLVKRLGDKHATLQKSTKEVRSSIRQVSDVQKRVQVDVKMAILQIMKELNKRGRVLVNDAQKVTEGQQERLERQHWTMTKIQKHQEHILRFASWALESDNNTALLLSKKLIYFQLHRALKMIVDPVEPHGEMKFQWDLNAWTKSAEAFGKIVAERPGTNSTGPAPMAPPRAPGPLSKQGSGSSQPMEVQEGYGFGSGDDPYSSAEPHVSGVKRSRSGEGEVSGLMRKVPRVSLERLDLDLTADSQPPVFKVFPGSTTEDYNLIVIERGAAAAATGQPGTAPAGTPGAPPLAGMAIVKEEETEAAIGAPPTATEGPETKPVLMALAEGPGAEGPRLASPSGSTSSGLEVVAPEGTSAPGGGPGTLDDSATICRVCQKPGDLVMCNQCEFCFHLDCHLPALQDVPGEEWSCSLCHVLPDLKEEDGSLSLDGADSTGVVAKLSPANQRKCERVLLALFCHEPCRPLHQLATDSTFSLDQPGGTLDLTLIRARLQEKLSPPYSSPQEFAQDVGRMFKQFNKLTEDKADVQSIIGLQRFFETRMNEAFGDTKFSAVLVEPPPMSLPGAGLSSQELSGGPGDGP
UniProt O14787: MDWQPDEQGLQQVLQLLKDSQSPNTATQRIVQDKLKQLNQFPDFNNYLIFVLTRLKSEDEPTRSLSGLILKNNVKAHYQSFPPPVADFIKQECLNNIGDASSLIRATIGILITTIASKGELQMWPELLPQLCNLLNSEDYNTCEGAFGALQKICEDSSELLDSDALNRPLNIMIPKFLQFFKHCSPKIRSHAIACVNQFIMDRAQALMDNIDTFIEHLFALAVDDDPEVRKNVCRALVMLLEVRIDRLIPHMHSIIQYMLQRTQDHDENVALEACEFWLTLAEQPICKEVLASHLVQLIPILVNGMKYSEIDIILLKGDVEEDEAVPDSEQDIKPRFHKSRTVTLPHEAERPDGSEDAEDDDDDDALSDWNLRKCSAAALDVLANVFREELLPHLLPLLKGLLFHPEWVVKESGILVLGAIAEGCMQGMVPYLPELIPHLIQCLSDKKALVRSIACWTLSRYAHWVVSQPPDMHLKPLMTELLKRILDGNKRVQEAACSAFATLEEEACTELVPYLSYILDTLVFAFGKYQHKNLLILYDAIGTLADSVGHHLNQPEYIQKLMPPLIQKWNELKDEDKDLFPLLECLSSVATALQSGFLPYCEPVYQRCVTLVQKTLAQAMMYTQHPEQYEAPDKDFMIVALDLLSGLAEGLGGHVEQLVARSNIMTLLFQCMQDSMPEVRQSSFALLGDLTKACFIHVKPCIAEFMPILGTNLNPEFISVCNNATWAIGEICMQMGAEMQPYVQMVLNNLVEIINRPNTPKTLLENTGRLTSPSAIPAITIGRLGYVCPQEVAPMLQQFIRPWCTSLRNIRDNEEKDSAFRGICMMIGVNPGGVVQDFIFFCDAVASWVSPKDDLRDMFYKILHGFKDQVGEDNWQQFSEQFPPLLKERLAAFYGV
UniProt Q9H496: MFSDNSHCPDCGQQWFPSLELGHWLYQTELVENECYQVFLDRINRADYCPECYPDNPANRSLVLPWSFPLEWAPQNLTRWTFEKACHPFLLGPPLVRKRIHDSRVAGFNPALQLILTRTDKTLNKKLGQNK
UniProt Q8N4H5: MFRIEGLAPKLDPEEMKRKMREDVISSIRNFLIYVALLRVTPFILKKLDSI
UniProt Q8TBZ6: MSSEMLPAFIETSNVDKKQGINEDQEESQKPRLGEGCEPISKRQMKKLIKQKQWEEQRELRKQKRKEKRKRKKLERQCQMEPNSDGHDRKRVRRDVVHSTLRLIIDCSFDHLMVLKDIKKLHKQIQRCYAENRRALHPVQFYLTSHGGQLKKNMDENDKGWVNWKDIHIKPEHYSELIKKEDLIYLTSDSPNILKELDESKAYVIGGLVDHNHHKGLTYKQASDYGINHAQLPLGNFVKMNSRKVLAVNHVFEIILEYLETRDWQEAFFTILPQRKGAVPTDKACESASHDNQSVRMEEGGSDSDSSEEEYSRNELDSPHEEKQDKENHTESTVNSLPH
UniProt Q92973: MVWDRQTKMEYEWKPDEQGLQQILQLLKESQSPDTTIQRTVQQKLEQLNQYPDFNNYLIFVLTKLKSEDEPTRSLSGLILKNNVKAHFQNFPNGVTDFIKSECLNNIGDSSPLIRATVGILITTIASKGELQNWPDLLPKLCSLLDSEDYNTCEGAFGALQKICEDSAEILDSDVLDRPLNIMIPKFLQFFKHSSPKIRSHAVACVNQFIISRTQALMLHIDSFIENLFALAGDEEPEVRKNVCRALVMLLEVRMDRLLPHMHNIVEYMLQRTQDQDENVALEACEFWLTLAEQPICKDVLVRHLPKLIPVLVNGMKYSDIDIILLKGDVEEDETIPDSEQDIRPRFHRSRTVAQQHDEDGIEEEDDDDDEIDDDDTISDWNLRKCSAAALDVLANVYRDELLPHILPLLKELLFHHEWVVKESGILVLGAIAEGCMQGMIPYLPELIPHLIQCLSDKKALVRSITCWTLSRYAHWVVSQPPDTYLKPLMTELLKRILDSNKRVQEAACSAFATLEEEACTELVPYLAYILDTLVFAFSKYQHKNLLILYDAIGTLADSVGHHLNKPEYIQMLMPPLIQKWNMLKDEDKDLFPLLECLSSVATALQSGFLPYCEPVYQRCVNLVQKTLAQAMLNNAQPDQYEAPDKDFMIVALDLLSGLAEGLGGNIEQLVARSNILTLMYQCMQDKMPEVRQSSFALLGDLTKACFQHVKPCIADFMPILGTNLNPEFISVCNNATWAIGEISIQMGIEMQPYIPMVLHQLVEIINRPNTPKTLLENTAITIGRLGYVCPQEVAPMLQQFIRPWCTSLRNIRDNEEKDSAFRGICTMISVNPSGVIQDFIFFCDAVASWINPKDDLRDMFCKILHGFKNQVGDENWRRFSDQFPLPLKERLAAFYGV
UniProt Q14669: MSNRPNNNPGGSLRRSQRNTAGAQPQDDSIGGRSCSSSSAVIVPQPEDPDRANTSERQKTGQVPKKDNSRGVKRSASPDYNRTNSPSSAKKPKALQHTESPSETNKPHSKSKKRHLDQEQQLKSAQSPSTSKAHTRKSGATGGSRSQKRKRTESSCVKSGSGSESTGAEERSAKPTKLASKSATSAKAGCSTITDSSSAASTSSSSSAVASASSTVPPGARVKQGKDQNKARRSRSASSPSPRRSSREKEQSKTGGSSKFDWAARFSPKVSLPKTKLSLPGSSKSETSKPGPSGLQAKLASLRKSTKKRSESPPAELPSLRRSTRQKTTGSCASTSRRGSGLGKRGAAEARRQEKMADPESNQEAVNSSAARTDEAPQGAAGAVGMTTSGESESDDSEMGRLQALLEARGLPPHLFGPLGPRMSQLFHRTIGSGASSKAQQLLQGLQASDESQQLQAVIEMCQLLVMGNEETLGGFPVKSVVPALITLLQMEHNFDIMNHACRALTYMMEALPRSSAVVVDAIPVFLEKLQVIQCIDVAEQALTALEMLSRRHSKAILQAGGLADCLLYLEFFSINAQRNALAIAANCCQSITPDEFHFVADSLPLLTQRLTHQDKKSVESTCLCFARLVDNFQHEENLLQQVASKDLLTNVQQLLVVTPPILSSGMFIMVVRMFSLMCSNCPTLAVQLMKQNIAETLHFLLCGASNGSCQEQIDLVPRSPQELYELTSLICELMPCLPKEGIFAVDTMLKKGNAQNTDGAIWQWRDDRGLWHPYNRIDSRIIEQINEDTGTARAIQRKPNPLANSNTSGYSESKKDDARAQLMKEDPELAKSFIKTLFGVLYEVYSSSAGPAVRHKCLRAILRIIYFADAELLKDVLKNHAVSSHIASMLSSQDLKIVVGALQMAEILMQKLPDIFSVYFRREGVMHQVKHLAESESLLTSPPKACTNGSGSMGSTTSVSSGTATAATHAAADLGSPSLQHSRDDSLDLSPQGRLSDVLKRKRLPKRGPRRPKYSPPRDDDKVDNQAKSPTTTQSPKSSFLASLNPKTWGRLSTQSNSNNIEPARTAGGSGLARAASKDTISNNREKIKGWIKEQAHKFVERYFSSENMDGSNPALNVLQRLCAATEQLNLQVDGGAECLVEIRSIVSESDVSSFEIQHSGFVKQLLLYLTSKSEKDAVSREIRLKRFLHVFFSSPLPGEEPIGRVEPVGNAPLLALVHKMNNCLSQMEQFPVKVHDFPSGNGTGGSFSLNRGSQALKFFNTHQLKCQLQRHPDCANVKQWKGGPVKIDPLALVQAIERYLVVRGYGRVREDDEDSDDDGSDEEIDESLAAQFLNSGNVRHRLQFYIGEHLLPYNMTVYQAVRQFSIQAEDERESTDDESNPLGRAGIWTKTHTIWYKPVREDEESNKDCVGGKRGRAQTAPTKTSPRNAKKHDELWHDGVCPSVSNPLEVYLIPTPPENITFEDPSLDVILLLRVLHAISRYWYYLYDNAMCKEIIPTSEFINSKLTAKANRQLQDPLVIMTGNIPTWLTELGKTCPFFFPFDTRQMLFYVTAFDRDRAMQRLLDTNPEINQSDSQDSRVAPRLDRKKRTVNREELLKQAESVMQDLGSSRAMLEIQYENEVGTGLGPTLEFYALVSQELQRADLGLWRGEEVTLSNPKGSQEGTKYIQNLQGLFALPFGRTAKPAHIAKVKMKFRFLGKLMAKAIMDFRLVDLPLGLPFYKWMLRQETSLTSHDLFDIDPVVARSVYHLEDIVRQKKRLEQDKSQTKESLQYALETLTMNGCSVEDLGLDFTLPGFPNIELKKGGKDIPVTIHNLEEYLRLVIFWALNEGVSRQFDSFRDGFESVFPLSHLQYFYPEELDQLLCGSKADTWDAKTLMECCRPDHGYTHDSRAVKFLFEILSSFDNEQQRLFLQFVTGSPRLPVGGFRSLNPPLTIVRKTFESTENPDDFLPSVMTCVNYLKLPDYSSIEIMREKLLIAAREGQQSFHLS
UniProt Q15025: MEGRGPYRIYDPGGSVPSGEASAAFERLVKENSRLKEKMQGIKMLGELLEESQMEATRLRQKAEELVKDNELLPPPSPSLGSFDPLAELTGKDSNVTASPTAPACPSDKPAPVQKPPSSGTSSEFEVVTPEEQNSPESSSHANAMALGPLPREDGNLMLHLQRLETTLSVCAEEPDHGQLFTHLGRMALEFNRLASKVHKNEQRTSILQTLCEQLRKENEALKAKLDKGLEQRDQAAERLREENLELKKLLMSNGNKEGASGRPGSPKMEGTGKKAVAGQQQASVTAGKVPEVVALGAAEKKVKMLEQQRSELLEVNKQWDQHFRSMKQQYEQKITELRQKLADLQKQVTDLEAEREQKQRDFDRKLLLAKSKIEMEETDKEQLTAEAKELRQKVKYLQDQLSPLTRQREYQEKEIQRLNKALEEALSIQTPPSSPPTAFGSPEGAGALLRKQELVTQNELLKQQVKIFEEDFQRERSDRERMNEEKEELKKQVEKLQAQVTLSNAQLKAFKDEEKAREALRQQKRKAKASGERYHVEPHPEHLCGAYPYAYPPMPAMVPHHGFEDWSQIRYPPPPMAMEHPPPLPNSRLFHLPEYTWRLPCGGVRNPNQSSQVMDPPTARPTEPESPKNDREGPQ
UniProt Q7L0Y3: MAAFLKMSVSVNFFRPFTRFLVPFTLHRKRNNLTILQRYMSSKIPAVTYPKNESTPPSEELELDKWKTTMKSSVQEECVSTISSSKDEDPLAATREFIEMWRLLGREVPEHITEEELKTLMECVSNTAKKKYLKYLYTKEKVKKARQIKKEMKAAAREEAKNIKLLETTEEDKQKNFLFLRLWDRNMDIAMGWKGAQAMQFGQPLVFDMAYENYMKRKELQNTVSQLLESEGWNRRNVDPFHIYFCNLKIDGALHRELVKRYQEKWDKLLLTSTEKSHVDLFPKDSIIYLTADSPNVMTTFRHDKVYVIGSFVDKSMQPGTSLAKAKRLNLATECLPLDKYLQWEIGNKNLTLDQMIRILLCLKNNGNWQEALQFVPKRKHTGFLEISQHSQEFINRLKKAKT
UniProt Q15388, whole entry, looked up: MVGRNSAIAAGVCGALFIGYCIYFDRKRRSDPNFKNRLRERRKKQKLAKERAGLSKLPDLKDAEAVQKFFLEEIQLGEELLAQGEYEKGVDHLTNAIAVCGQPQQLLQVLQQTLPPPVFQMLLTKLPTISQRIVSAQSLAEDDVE
UniProt O43617, whole entry, looked up: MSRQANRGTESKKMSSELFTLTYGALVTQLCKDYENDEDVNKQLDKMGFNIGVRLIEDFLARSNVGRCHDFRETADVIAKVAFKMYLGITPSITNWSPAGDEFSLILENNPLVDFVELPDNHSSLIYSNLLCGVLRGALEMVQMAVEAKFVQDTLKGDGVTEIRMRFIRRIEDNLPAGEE

Compound: CC[C@H](C)[C@@H](C(=O)N[C@@H]([C@@H](C)O)C(=O)N[C@@H](CC(C)C)C(=O)[C@]1(CO1)C)NC(=O)[C@H]([C@@H](C)CC)N(C)C(=O)C [epoxomicin]
Assay: log2 fold change, soluble protein after heating vs DMSO (PISA); higher = thermal stabilisation; K562 cells, 10 uM, 30 min; active = over 0.2 and 3.5 SD of the protein, either way, in both replicates (recomputed)
In short: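 Soluble protein was defined as the supernatant after 21,000xg for 90 min. It came from K562 cells at 2×10^6 cells/mL given 10 μM compound for 30 min, heated in aliquots for 3 min across 48°C-58°C, pooled, and extracted in PBS with 0.5% NP-40 at 4°C, and was quantified by TMTpro 16plex LC-MS/MS with equalised channel sums. Thermal stability against control samples, from duplicates, is reported as log2 fold change.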

**Q.** For TRIM28 (UniProt Q13263), which log2 fold change is on record?
**A.** inactive: 0.077

**Q.** TPM2 (UniProt P07951) was tested. Which log2 fold change did it give?
**A.** inactive: 0.287

**Q.** For TRIO (UniProt O75962), which log2 fold change is on record?
**A.** inactive: -0.032

**Q.** TNPO2 (UniProt O14787) was tested. Which log2 fold change did it give?
**A.** inactive: 0.029

**Q.** TOR1AIP2 (UniProt Q9H496) was tested. Which log2 fold change did it give?
**A.** inactive: 0.33

**Q.** TRMT5 (UniProt Q32P41) was tested. Which log2 fold change did it give?
**A.** inactive: -0.087

**Q.** TOMM5 isoform 2 (UniProt Q8N4H5) was tested. Which log2 fold change did it give?
**A.** active: 0.538

**Q.** Which log2 fold change does the source give for TRMT10A (UniProt Q8TBZ6) here?
**A.** inactive: 0.003

**Q.** Which log2 fold change does the source give for TRAM1 (UniProt Q15629) here?
**A.** inactive: 0.008

**Q.** With TSEN2 (UniProt Q8NCE0) as the target, how does the log2 fold change read?
**A.** inactive: 0.078

**Q.** How did the log2 fold change turn out when TOM1L1 (UniProt O75674) was run?
**A.** inactive: 0.013

**Q.** Which log2 fold change does the source give for TNPO1 (UniProt Q92973) here?
**A.** inactive: -0.016

**Q.** How did the log2 fold change turn out when TRIP12 isoform 3 (UniProt Q14669) was run?
**A.** inactive: 0.019

**Q.** For TOR1AIP1 (UniProt Q5JTV8), which log2 fold change is on record?
**A.** inactive: -0.042

**Q.** TRABD (UniProt Q9H4I3) was tested. Which log2 fold change did it give?
**A.** inactive: -0.004

**Q.** With TRIM4 (UniProt Q9C037) as the target, how does the log2 fold change read?
**A.** inactive: 0.111

**Q.** TRIP10 (UniProt Q15642) was tested. Which log2 fold change did it give?
**A.** inactive: 0.034

**Q.** TNIP1 (UniProt Q15025) was tested. Which log2 fold change did it give?
**A.** inactive: 0.038

**Q.** Which log2 fold change does the source give for TRMT10C (UniProt Q7L0Y3) here?
**A.** inactive: 0.046

**Q.** With TP53BP1 isoform 2 (UniProt Q12888) as the target, how does the log2 fold change read?
**A.** inactive: 0

**Q.** Which log2 fold change does the source give for TOMM20 (UniProt Q15388) here?
**A.** inactive: -0.089

**Q.** With TRAPPC3 (UniProt O43617) as the target, how does the log2 fold change read?
**A.** inactive: -0.029

**Q.** TSC2 (UniProt P49815) was tested. Which log2 fold change did it give?
**A.** inactive: -0.01

**Q.** For TNFRSF8 (UniProt P28908), which log2 fold change is on record?
**A.** inactive: 0.016

**Q.** For TRPM7 (UniProt Q96QT4), which log2 fold change is on record?
**A.** inactive: -0.094
